From patent US20190021380A1 (priority 2014, published 2019)

Sequences of proteins named here, by UniProt entry; tags and fusion partners are left off. A line that says so, or that is headed by a name, gives the form on record, which may keep a tag or linker. Residues count along the entry.
UniProt E3UMS2, 1-296: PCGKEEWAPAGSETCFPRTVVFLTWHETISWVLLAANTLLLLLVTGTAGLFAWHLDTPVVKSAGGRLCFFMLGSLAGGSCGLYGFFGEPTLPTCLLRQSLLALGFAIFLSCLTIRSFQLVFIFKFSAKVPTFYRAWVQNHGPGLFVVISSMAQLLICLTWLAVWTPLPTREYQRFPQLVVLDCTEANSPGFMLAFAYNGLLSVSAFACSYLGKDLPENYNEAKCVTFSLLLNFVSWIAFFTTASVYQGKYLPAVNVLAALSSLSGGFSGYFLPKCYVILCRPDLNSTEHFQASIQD
UniProt Q49KI5, with tags, fused parts or gaps E206Q/F654L/N523D partner limits assumed: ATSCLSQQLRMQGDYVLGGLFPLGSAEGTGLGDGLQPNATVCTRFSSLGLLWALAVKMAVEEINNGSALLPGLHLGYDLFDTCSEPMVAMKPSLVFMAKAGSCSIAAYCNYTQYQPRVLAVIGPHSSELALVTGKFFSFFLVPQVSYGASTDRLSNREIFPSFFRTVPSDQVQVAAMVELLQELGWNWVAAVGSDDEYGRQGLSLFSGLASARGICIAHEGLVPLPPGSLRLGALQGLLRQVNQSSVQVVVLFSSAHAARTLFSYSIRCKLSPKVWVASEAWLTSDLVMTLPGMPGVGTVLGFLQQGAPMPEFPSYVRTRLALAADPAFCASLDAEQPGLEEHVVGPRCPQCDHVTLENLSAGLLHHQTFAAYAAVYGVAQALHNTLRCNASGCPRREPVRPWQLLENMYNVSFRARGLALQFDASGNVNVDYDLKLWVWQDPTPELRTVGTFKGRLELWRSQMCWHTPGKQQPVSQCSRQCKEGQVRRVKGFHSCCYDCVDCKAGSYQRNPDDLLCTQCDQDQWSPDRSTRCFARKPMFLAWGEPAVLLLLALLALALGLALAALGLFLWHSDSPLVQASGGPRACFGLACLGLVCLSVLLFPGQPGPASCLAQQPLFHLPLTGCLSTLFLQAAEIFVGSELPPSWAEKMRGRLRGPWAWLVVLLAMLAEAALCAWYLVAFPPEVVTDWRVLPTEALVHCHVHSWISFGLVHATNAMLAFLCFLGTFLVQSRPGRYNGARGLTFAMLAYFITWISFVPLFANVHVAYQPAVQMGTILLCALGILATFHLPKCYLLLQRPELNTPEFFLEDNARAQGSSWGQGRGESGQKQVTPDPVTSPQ

Molecular target: cat T1R1/T1R3 receptor (Felis catus, UniProt E3UMS2)
Settings: tested form: dilithium salt

SMILES: Nc1ncnc2c1ncn2[C@@H]1O[C@H](COP(O)(O)=S)[C@@H](O)[C@H]1O
- Thres: 0.015 mM

Structures were worked out from names or drawings and are uncertain.
